For the data set, the target named is T1, hORC1(413-511) (Homo sapiens) (UniProt Q13415).
T1 sequence (looked up): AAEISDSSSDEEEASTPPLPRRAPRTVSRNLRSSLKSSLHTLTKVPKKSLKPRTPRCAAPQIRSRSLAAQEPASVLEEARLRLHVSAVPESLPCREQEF
In words: fluorescence anisotropy. Conditions: 100 mM LiCl instead of KCl; FA: 20 mM HEPES-KOH pH 7.7, 100 mM KCl (or LiCl), 1 mM EDTA, 1 mM DTT, 25 C, 2 uM DNA, 1:1 fit; recombinant protein; residues 413-511; label: 5'-FAM; single-stranded DNA. Background: Fluorescence polarisation rises when a labelled molecule tumbles more slowly, as on binding a larger partner.

By Kd is commonly meant the concentration at which binding is half-saturated.

The exact form of at least one protein or probe is not confirmed. Protein sequences can lack the tags named with them.

With “TTGGGTTAGGGTTAGGGTTAGGGA [teloDNA in LiCl (no G4)]”, the Kd is 1540 nM.
